# According to patent publication US20250177473A1, “PEPTIDE REGULATORS OF METABOLISM” (Metabico, Inc., priority 2022, published 2025):
# At least one peptide structure holds a part that was inferred or is arguable (an end, a ring closure or a residue). Residues, ends and D or L forms follow the SMILES beside them.
# Legend:
# IRS2 gene expression = assay: IRS2 and metabolic gene mRNA expression (real-time PCR) in primary mouse fibroblasts; type: cell-based; details: 24 hours
# Method: The study was carried out in primary mouse fibroblasts. Fibroblasts were isolated from skin tissues of twenty C57BL/6 mice in accordance with the standard protocol (Seluanov (2010). Establishing primary adult fibroblast cultures from rodents. JoVE. 44). Fibroblasts were cultured in a complete DMEM/F12 medium containing 15% FBS for two days, after which they were incubated with individual peptides for 24 hours. The dose of each peptide was 0.5 mg/ml. The experiment was carried out in 2 biological replicates.
# The isolation of total RNA from cells was performed using the “ExtractRNA” reagent (Evrogen, Russia) analog of Trizol, according to the manufacturer's protocol. The quality of the isolated total RNA was assessed by measuring the concentration of RNA and the ratio of optical absorption at wavelengths of 260 nm and 280 nm. […]
# Real-time PCR was performed using commercially available kit qPCR mix-HS-SYBR+Low Rox (Evrogen, Russia) and 7500 real-time PCR System (Applied Biosystems). […] We analyzed expression levels of TSC1, TSC2, pS6K1, pAKT, IRS2, SREBP-1, Stat3 genes. […]
# Isolation of mRNA, synthesis of the first strand of cDNA, and RT-PCR were performed with techniques described earlier (See Example 1). Expression levels of IRS2, TNF-α, IL-6, and GSK3p (WNT-pathway) were analyzed. […]
# [1] = tested on: P-Akt Ser473, P-Akt Thr308, P-p70 S6 Kinase (Thr421/Ser424) in liver; assay: Western blot of insulin signaling phosphoproteins in liver of HSD rats after insulin; type: in vivo, rat; details: EPSI 1 and 10 mg/kg i.p., 2 and 12 h, normalized to GAPDH
smiles,measurement,setting,value
CC[C@H](C)[C@H](NC(=O)[C@H](CO)NC(=O)[C@@H]1CCCN1C(=O)[C@@H](N)CCC(=O)O)C(=O)O [EPSI] (H-EPSI-OH),IRS2 expression during LPS-induced inflammatory response,IRS2 gene expression; peptide 100 μM + LPS 0.5 μg/mL,induced
same,IRS2 gene expression levels,"IRS2 gene expression; pharmacophore screen, peptides 100 μM",induce IRS2 gene expression levels
same,level of p-AKT (Ser473) in liver in response to insulin,[1],increase
same,level of p-AKT (Thr308) in liver in response to insulin,[1],Restoration
